Experimental data: PubChem BioAssay AID504774 (Drosophila RNAi Screening Center, 2011)
The deposit covers about 23,000 reagents; below is a random part of those that have a named target and a result. 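Values are quantile-normalised luminescence on an arbitrary scale; higher means more cells surviving MMS.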 Reagents against one gene are numbered here. Names joined by + are all predicted targets of the reagent. Not all columns of the deposit are shown. No sequences are given here.

Aim: 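Genes required for cells to withstand methyl methanesulphonate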 (primary screen)
System: Drosophila Kc167 cells
Reagents: long dsRNA against Drosophila genes, about 0.25 µg dsRNA per well
Time to read-out: about 6 days: 3 days knock-down, then 3 days with or without MMS
Treatment: methyl methanesulphonate 0.004% (w/v) for 3 days after knock-down
Read-out: 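Viability in wells given MMS, read as ATP luminescence, normalised by quantiles plate by plate and averaged across replicates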
Scale: mean viability with MMS: higher = more surviving cells after MMS

| target gene | dsRNA no. | mean viability with MMS |
| --- | --- | --- |
| CG7381 | 1 | 3.69e6 |
| CG15545 | 1 | 3.51e6 |
| CG10809 | 1 | 3.77e6 |
| CG15387 | 1 | 3.64e6 |
| CG1847 | 1 | 3.47e6 |
| smp-30 | 1 | 3.62e6 |
| Dip-C | 1 | 3.78e6 |
| ari-1 | 1 | 3.72e6 |
| ari-1 | 2 | 3.71e6 |
| deltaCOP | 1 | 3.42e6 |
| betaTry | 1 | 3.83e6 |
| betaTry | 2 | 3.39e6 |
| f-cup | 1 | 3.37e6 |
| YL-1 | 1 | 3.59e6 |
| CG33506 | 1 | 3.32e6 |
| l(3)neo38 | 1 | 3.48e6 |
| l(3)neo38 | 2 | 3.55e6 |
| l(3)neo38 | 3 | 3.42e6 |
| CG14362 | 1 | 3.58e6 |
| eIF3l | 1 | 3.39e6 |
| CG8066 | 1 | 3.51e6 |
| CG8501 | 1 | 3.61e6 |
| CG12376 | 1 | 3.70e6 |
| CG31820 | 1 | 3.57e6 |
| CG42507 + Trl | 1 | 3.35e6 |
| CG42507 + Trl | 2 | 2.76e6 |
| sigmar | 1 | 3.64e6 |
| t-Grip84 | 1 | 3.64e6 |
| frj | 1 | 3.39e6 |
| Sec31 | 1 | 3.53e6 |
| Mov10 | 1 | 3.40e6 |
| Cyp12e1 | 1 | 3.50e6 |
| Pp2A-29B | 1 | 3.79e6 |
| CG3713 | 1 | 3.66e6 |
| pho | 1 | 3.59e6 |
| Indy-2 + CG33934 | 1 | 3.47e6 |
| Indy-2 + CG33934 | 2 | 3.55e6 |
| CG32448 | 1 | 3.47e6 |
| Usp12-46 | 1 | 3.57e6 |
| Nurf-38 | 1 | 3.39e6 |
| CG31213 | 1 | 3.69e6 |
| CG31213 | 2 | 3.57e6 |
| CG6168 | 1 | 3.55e6 |
| kek2 | 1 | 3.45e6 |
| CG7457 | 1 | 3.60e6 |

An excerpt from the list above:
| target gene | dsRNA no. | mean viability with MMS |
| --- | --- | --- |
| CG14362 | 1 | 3.58e6 |
| eIF3l | 1 | 3.39e6 |
| CG8066 | 1 | 3.51e6 |

Further records:
| target gene | dsRNA no. | mean viability with MMS |
| --- | --- | --- |
| CG4884 | 1 | 3.41e6 |
| CG9107 | 1 | 3.43e6 |
| Uvrag | 1 | 3.50e6 |
| Fic | 1 | 3.54e6 |
| CG12071 | 1 | 2.81e6 |
| CG12071 | 2 | 3.25e6 |
| CG7369 | 1 | 3.48e6 |
| CG1503 | 1 | 3.49e6 |
| GLaz | 1 | 3.45e6 |
| NK7.1 | 1 | 3.62e6 |
| CR31824 | 1 | 3.47e6 |
| CG31562 (retired record) | 1 | 3.57e6 |
| CG31562 (retired record) | 2 | 3.49e6 |
| CG42712 (retired record) | 1 | 3.45e6 |
| CG9215 | 1 | 3.49e6 |
| CR41501 | 1 | 3.52e6 |
| CG9400 | 1 | 3.61e6 |
| CG18336 | 1 | 3.72e6 |
| Vm34Ca | 1 | 3.48e6 |
| Opa1 | 1 | 3.58e6 |
| CG4907 | 1 | 3.52e6 |
| CG13842 | 1 | 3.49e6 |
| Src64B | 1 | 3.65e6 |
